In this assay the target is T1, 3×Flag-tagged GSDME (UniProt O60443).
T1 sequence: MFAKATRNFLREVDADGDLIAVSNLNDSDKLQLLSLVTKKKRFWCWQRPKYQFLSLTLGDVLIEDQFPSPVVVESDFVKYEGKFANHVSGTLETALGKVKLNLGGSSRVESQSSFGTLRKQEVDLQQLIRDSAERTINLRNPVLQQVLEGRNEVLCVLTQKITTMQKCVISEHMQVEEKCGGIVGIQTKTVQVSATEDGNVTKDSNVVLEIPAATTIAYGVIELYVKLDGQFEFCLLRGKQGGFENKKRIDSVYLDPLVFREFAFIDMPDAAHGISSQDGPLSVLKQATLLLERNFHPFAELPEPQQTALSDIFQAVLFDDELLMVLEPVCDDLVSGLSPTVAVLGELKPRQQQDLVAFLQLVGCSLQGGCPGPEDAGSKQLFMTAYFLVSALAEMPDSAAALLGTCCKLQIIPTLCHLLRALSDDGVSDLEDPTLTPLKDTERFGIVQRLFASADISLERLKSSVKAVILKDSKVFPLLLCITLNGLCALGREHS
Kind of assay: co-IP; 3×Flag-GSDME and HA-tagged ZDHHCs co-transfected into 293T cells; precipitation with anti-Flag antibody (Flag magnetic beads), 4 °C overnight; 20 mM Tris pH 7.5, 150 mM NaCl, 1% Triton X-100; western blot. On the technique in general: In western blotting, separated proteins are transferred to a membrane and probed.

The chains behind the UniProt entries cited, without tags or fusion partners.
UniProt Q9UIJ5: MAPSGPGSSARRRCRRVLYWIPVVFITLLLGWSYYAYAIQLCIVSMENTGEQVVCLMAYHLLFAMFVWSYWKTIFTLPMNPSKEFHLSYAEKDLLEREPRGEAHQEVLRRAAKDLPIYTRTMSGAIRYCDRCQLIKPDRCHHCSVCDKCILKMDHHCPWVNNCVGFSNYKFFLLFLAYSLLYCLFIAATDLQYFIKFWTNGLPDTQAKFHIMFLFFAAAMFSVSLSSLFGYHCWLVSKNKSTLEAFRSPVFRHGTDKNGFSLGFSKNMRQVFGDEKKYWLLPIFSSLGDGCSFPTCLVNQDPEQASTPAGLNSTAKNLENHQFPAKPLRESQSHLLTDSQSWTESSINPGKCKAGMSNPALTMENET

These are yes or no findings as the source states them, for the method shown. In cells and extracts the contact can be indirect. Some entries that bind do so weakly or less than the wild type. Sequences can lack the tags named with a protein.

In the case of “HA-tagged ZDHHC2 (from UniProt Q9UIJ5 1-367) (enzyme)”, the binding result is reported as “binds”.
